Measurements from patent publication US20170204174A1 (published 2017).
These are yes or no findings as the source states them, for the method shown. Some binding calls cover weakened binding; strength is not graded here.

Biological target: T1, recombinant mature human GDF-15 protein (SEQ ID No: 8) (human) (UniProt Q99988)
T1 sequence: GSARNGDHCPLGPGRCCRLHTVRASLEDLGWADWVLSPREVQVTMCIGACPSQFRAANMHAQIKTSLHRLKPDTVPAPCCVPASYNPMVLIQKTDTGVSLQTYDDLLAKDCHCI
Assay: colorimetric ELISA, hrGDF-15 coated (25 ng per well), antibody from 333 ng/ml in 1:3 dilutions

B1: H1L5 humanized B1-23 anti-GDF-15 antibody (antibody, human IgG1, V domains shown)
VH: QITLKESGPTLVKPTQTLTLTCTFSGFSLSTSGMGVSWIRQPPGKGLEWLAHIYWDDDKRYNPTLKSRLTITKDPSKNQVVLTMTNMDPVDTATYYCARSSYGAMDYWGQGTLVTVSS
VL: DIVLTQSPSFLSASVGDRVTITCKASQNVGTNVAWFQQKPGKSPKALIYSASYRYSGVPDRFTGSGSGTEFTLTISSLQPEDFAAYFCQQYNNFPYTFGGGTKLEIKR
notes: Human IgG1 (trastuzumab backbone); also called H1L5 anti-GDF-15 antibody; humanized B1-23-H1L5 antibody
- binding: binds
